# Measured values: article PMC11058299, “Synthesis, molecular docking evaluation for LOX and COX-2 inhibition and determination of in-vivo analgesic potentials of aurone derivatives” (Heliyon, 2024)
# Test system: heat induced tail flicking latency
# Experiment: Tail immersion test
# Type: in vivo
# Settings: 10 mg/kg oral, mice
# Protocol: Group I: Control, Group II-XV: WE-1 to WE-7 (sample compounds) at dose of 10 mg/kg and 20 mg/kg and Group XVI: Standard. The control (Group I) was given normal saline. Group II-XV received 10 mg/kg and 20 mg/kg of test sample (WE-1 to WE-7).
# The cut-off time was set at 25 s, and the time taken for the mice to flick their tails out of the water was recorded at 30, 60, 90, and 120-min intervals. An increase in the time of tail immersion was compared to the control group to determine the analgesic effect of the tested drugs. The percentage of inhibition was calculated at the time interval showing the highest effect.
smiles,measurement,value
"COc1cccc(C2(O)CCCCC2CN(C)C)c1 (stereo not shown) [Tramadol, reference compound]","percentage inhibition of pain, tail immersion",80.57%
